Test results reported in the M2OR odorant receptor database.
Residue numbers refer to the chain shown, from its start. Only a part is listed here, and it is no random draw. Calls are pooled over several reports, among them a noisy single-well screen. The list shows a part of the results.

Chains of the proteins cited; added tags and fusions are not shown. A line that says so, or that is headed by a name, gives the form on record, which may keep a tag or linker.
OR8B3, as listed by the source: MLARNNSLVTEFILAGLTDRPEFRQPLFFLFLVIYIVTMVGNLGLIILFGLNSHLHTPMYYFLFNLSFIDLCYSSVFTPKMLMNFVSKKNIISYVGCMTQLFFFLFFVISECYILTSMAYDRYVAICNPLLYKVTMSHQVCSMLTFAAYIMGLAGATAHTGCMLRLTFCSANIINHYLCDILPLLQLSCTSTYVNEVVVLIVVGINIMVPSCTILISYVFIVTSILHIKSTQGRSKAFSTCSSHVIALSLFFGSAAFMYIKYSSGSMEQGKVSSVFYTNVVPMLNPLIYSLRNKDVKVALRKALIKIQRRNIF
OR8B4, as listed by the source: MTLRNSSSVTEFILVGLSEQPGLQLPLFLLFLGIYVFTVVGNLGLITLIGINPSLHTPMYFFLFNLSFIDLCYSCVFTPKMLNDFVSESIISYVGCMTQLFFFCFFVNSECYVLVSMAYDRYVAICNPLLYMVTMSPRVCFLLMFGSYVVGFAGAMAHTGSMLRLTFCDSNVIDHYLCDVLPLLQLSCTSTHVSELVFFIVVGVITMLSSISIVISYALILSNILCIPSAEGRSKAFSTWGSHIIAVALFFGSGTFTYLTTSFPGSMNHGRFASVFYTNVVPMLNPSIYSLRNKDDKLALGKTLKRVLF

The compounds below were run against T1, OR8B2 (Homo sapiens) (UniProt Q96RD0). Conditions: stereoisomer not certain.
T1 sequence (whole entry): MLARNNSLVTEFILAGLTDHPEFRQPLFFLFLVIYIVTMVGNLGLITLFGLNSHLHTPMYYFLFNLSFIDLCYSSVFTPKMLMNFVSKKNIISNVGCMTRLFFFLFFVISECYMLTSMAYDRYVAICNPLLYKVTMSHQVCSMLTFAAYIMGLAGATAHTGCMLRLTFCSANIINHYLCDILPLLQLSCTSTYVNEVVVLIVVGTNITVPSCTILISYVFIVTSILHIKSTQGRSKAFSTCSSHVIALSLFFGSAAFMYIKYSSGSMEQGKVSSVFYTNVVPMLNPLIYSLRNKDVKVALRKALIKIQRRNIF
How it was run: (§1)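 Transient luciferase assays in mammalian cell lines were common, though methods varied by source. The values come from published papers and their supplementary material, with extra details from the original authors when needed. Responsive refers to a measured signal the original authors judged statistically different from baseline, and non-responsive (inactive) to the remainder.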
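Also: active if original authors judged signal statistically different from baseline.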

Q: With CCC(C)=O as the compound, how does the “odorant receptor agonist call” value read?
A: Its value is “inactive”.

What follows are compounds tested on T2, OR8B3. Conditions: stereoisomer not certain.
T2 sequence (whole entry): T1 sequence (whole entry) with H20R, T47I, N94Y, R100Q, M114I, T205I, T208M
How it was run: as §1

Q: With CCCCOC(C)=O as the compound, how does the “odorant receptor agonist call” value read?
A: Its value is “inactive”.

Q: How did the “odorant receptor agonist call” value turn out when CS was run?
A: The value was “inactive”.

Q: How did the “odorant receptor agonist call” value turn out when CCC(C)=O was run?
A: Its value is “inactive”.

These compounds were tested on T3, OR8B4. Conditions: stereoisomer not certain.
T3 sequence (whole entry): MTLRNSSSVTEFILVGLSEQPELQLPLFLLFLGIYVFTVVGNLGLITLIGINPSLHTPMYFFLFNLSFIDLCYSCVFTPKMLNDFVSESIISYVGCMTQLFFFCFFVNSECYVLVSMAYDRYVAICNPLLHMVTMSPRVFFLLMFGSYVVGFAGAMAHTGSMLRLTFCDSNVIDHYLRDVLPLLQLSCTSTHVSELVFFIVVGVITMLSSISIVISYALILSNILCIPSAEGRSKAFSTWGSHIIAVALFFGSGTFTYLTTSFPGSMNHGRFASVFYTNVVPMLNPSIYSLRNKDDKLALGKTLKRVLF
How it was run: as §1

Q: Which “odorant receptor agonist call” value does the source give for CCCCOC(C)=O here?
A: The value was “inactive”.

Q: For CS, which “odorant receptor agonist call” value is on record?
A: Its value is “inactive”.

Q: How did the “odorant receptor agonist call” value turn out when CCC(C)=O was run?
A: Its value is “inactive”.

What follows are compounds tested on T4, OR8B4. Conditions: stereoisomer not certain.
T4 sequence (whole entry): T3 sequence (whole entry) with E22G, H131Y, F140C, R178C
How it was run: as §1

Q: How did the “odorant receptor agonist call” value turn out when CCCCOC(C)=O was run?
A: The value was “inactive”.

Q: With CS as the compound, how does the “odorant receptor agonist call” value read?
A: The value was “inactive”.

Q: CCC(C)=O was tested. Which “odorant receptor agonist call” value did it give?
A: Its value is “inactive”.

Each compound was assayed against T5, OR8B8 (Homo sapiens) (UniProt Q15620). Conditions: stereoisomer not certain.
T5 sequence (whole entry): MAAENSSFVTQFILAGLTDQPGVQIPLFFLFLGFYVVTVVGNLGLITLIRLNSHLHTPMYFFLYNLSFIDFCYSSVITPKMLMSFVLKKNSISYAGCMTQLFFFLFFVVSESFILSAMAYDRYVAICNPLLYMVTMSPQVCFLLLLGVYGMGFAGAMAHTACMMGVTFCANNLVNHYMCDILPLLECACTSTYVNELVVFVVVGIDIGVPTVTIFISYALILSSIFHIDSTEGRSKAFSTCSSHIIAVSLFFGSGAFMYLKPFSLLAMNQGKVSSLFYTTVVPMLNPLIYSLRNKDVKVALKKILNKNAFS
How it was run: as §1

Q: For CCCCOC(C)=O, which “odorant receptor agonist call” value is on record?
A: Its value is “inactive”.

Q: Which “odorant receptor agonist call” value does the source give for CS here?
A: The value was “inactive”.

Q: With CCC(C)=O as the compound, how does the “odorant receptor agonist call” value read?
A: Its value is “inactive”.

Each compound was assayed on T6, OR8B8. Conditions: stereoisomer not certain.
T6 sequence (whole entry): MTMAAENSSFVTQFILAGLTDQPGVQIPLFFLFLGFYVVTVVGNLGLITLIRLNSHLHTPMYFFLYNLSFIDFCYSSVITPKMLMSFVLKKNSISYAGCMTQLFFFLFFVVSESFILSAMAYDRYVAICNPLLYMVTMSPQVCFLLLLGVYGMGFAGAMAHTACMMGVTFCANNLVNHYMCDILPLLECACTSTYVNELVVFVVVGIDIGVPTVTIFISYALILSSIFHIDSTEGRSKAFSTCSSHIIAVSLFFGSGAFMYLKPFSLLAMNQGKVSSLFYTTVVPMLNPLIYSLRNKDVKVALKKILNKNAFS
How it was run: as §1

Q: For CCCCOC(C)=O, which “odorant receptor agonist call” value is on record?
A: The value was “inactive”.

Q: Which “odorant receptor agonist call” value does the source give for CS here?
A: The value was “inactive”.

Q: For CCC(C)=O, which “odorant receptor agonist call” value is on record?
A: The value was “inactive”.

Each compound was assayed against T7, OR8D1 (Homo sapiens) (UniProt Q8WZ84). Conditions: stereoisomer not certain.
T7 sequence (whole entry): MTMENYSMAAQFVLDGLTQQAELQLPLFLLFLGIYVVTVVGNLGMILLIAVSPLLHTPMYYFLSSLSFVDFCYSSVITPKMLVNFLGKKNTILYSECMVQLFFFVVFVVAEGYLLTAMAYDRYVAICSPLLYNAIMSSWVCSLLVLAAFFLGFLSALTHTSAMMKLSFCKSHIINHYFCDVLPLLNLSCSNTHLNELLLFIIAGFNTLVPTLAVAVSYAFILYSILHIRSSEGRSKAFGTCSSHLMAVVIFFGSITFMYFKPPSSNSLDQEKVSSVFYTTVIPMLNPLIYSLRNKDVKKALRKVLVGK
How it was run: as §1

Q: For CCCCOC(C)=O, which “odorant receptor agonist call” value is on record?
A: Its value is “inactive”.

Q: With CCOc1cc(C=O)ccc1O as the compound, how does the “odorant receptor agonist call” value read?
A: The value was “inactive”.

Q: CS was tested. Which “odorant receptor agonist call” value did it give?
A: Its value is “inactive”.

Q: With CCC(C)=O as the compound, how does the “odorant receptor agonist call” value read?
A: Its value is “inactive”.

Each compound was assayed against T8, OR8D2 (Homo sapiens) (UniProt Q9GZM6). Conditions: stereoisomer not certain.
T8 sequence (whole entry): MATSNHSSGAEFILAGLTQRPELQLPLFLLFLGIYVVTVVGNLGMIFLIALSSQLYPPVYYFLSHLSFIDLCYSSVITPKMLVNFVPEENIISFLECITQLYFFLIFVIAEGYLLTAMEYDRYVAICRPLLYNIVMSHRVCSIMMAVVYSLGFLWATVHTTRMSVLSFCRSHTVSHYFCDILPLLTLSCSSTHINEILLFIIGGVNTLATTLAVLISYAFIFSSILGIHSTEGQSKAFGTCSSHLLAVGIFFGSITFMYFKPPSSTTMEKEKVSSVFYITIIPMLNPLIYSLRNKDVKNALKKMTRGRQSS
How it was run: as §1

Q: CCCCOC(C)=O was tested. Which “odorant receptor agonist call” value did it give?
A: The value was “inactive”.

Q: With CS as the compound, how does the “odorant receptor agonist call” value read?
A: Its value is “inactive”.

Q: CCC(C)=O was tested. Which “odorant receptor agonist call” value did it give?
A: The value was “inactive”.

What follows are compounds tested on T9, OR8D4. Conditions: stereoisomer not certain.
T9 sequence (whole entry): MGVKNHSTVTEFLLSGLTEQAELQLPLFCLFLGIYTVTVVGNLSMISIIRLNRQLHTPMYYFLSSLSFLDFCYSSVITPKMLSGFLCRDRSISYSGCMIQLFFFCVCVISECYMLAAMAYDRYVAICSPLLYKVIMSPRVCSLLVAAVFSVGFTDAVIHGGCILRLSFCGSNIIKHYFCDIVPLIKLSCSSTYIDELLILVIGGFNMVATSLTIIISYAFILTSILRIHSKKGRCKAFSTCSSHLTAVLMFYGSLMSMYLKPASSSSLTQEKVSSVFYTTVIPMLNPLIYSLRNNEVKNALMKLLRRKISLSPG
How it was run: as §1

Q: For CCCCOC(C)=O, which “odorant receptor agonist call” value is on record?
A: The value was “inactive”.

Q: How did the “odorant receptor agonist call” value turn out when CS was run?
A: The value was “inactive”.

Q: How did the “odorant receptor agonist call” value turn out when CCC(C)=O was run?
A: The value was “inactive”.

What follows are compounds tested against T10, OR8G1 (Homo sapiens) (UniProt Q15617). Conditions: stereoisomer not certain.
T10 sequence (whole entry): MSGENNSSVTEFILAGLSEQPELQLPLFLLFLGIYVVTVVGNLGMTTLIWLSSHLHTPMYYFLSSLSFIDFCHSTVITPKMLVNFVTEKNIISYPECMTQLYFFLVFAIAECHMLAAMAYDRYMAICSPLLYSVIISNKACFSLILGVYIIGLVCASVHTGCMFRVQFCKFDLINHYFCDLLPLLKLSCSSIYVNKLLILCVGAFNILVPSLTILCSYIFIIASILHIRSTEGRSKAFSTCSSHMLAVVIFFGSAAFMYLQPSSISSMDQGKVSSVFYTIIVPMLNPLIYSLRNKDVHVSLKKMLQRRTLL
How it was run: as §1

Q: Which “odorant receptor agonist call” value does the source give for CCCCOC(C)=O here?
A: The value was “inactive”.

Q: CS was tested. Which “odorant receptor agonist call” value did it give?
A: Its value is “inactive”.

Q: With CCC(C)=O as the compound, how does the “odorant receptor agonist call” value read?
A: The value was “inactive”.

What follows are compounds tested against T11, OR8G5 (Homo sapiens) (UniProt Q8NG78). Conditions: stereoisomer not certain.
T11 sequence (whole entry): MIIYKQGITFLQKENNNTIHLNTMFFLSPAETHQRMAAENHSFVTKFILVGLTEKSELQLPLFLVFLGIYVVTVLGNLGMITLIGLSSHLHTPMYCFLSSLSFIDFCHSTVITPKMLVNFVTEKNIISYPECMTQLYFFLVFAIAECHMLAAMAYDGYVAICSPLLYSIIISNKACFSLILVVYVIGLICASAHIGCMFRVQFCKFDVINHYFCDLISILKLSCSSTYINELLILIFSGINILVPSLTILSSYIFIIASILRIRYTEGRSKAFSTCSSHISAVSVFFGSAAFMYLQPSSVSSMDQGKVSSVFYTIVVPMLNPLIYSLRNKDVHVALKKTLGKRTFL
How it was run: as §1

Q: How did the “odorant receptor agonist call” value turn out when CCCCOC(C)=O was run?
A: The value was “inactive”.

Q: For CS, which “odorant receptor agonist call” value is on record?
A: The value was “inactive”.

Q: CCC(C)=O was tested. Which “odorant receptor agonist call” value did it give?
A: Its value is “inactive”.
